# In PubChem BioAssay AID188 (DTP/NCI, 2004):
# The mice bore no tumour; each value counts animals alive of those treated. Survivors were counted at the toxicity check, usually on the fifth day, unless a day is given; later deaths do not show. Schedules are NCI's codes, read here as Q, the interval in days (D) or hours (H), X, the number of doses. Some doses were run more than once; the values are given in rising order.
# Test system: CD2F1 mice, nontumored, toxicity/survival
# Assay: NCI In Vivo Anticancer Drug Screen. Data for tumor model Nontumored Animals (Toxicity Test) in CD2F1 (CDF1) mice
# [1] = dose: 1.0 mg/kg/injection, schedule: Q01DX001 (ip), vehicle: DMSO
# [2] = dose: 10.0 mg/kg/injection, schedule: Q01DX001 (ip), vehicle: DMSO
# [3] = dose: 100.0 mg/kg/injection, schedule: Q01DX001 (ip), vehicle: DMSO
# [4] = dose: 1.0 mg/kg/injection, schedule: Q01DX001 (ip), vehicle: saline with Tween-80
# [5] = dose: 10.0 mg/kg/injection, schedule: Q01DX001 (ip), vehicle: saline with Tween-80
# [6] = dose: 100.0 mg/kg/injection, schedule: Q01DX001 (ip), vehicle: saline with Tween-80
smiles,measurement,setting,value
Cc1c(C)c2c(c(C)c1O)CCC(C)(CCCC(C)CCCC(C)CCCC(C)C)O2 (stereo unspecified),survivor count,"dose: 170.0 mg/kg/injection, schedule: Q01DX001 (ip), vehicle: olive oil, sesame oil, peanut oil",6 of 6
same,survivor count,"dose: 340.0 mg/kg/injection, schedule: Q01DX001 (ip), vehicle: olive oil, sesame oil, peanut oil",6 of 6
CCNc1ncc2ccccc2c1-c1ccc(NCCCl)cc1,survivor count,[1],2 of 2
same,survivor count,[2],2 of 2
same,survivor count,[3],2 of 2
COc1ccc2c(c1OC(C)=O)-c1cc(OC(C)=O)cc3c1C(C2)N(C)CC3 (stereo unspecified),survivor count,[1],2 of 2
same,survivor count,[2],2 of 2
same,survivor count,[3],2 of 2
CC(=O)Nc1ccc(-c2c(NCCO)ncc3ccccc23)cc1,survivor count,[1],2 of 2
same,survivor count,[2],2 of 2
same,survivor count,[3],2 of 2
COc1cccc2c1C(=O)c1c(O)c3c(c(O)c1C2=O)C[C@@](O)(C(=O)CO)C[C@@H]3OC1CC(N)C(O)C(C)O1 (stereo partly specified),survivor count,"dose: 0.5 mg/kg/injection, schedule: Q04DX003 (ip), vehicle: saline",5 of 5
same,survivor count,"dose: 1.0 mg/kg/injection, schedule: Q04DX003 (ip), vehicle: saline",4 of 4 and 5 of 5
same,survivor count,"dose: 1.3 mg/kg/injection, schedule: Q04DX003 (ip), vehicle: saline",5 of 5
same,survivor count,"dose: 1.3 mg/kg/injection, schedule: Q10HX004 (ip), vehicle: saline",5 of 5
same,survivor count,"dose: 2.0 mg/kg/injection, schedule: Q04DX003 (ip), vehicle: saline",4 of 4 and 5 of 5
same,survivor count,"dose: 2.16 mg/kg/injection, schedule: Q04DX003 (ip), vehicle: saline",5 of 5
same,survivor count,"dose: 2.16 mg/kg/injection, schedule: Q10HX004 (ip), vehicle: saline",5 of 5
same,survivor count,"dose: 2.4 mg/kg/injection, schedule: Q01DX001 (ip), vehicle: saline",4 of 4
same,survivor count,"dose: 3.6 mg/kg/injection, schedule: Q01DX001 (ip), vehicle: saline",4 of 4
same,survivor count,"dose: 3.6 mg/kg/injection, schedule: Q04DX003 (ip), vehicle: saline",5 of 5
same,survivor count,"dose: 3.6 mg/kg/injection, schedule: Q10HX004 (ip), vehicle: saline",5 of 5
same,survivor count,"dose: 4.0 mg/kg/injection, schedule: Q01DX001 (ip), vehicle: saline",4 of 4 and 6 of 6
same,survivor count,"dose: 4.0 mg/kg/injection, schedule: Q04DX003 (ip), vehicle: saline",4 of 4 and 5 of 5
same,survivor count,"dose: 4.75 mg/kg/injection, schedule: Q01DX001 (ip), vehicle: saline",6 of 6
same,survivor count,"dose: 5.9 mg/kg/injection, schedule: Q01DX001 (ip), vehicle: saline",5 of 5
same,survivor count,"dose: 6.0 mg/kg/injection, schedule: Q01DX001 (ip), vehicle: saline",4 of 4
same,survivor count,"dose: 6.0 mg/kg/injection, schedule: Q04DX003 (ip), vehicle: saline",5 of 5
same,survivor count,"dose: 6.0 mg/kg/injection, schedule: Q10HX004 (ip), vehicle: saline",3 of 4
same,survivor count,"dose: 6.33 mg/kg/injection, schedule: Q01DX001 (ip), vehicle: saline",6 of 6
same,survivor count,"dose: 6.7 mg/kg/injection, schedule: Q01DX001 (ip), vehicle: saline",10 of 10
same,survivor count,"dose: 7.1 mg/kg/injection, schedule: Q01DX001 (ip), vehicle: saline",10 of 10
same,survivor count,"dose: 8.0 mg/kg/injection, schedule: Q01DX001 (ip), vehicle: saline",4 of 4 and 6 of 6
same,survivor count,"dose: 8.0 mg/kg/injection, schedule: Q04DX003 (ip), vehicle: saline",4 of 4 and 5 of 5
same,survivor count,"dose: 8.44 mg/kg/injection, schedule: Q01DX001 (ip), vehicle: saline",6 of 6
same,survivor count,"dose: 8.9 mg/kg/injection, schedule: Q01DX001 (ip), vehicle: saline",5 of 5
same,survivor count,"dose: 9.6 mg/kg/injection, schedule: Q01DX001 (ip), vehicle: clinical formulation",6 of 6
same,survivor count,"dose: 9.6 mg/kg/injection, schedule: Q01DX001 (ip), vehicle: saline",4 of 4 and 6 of 6
same,survivor count,"dose: 10.0 mg/kg/injection, schedule: Q01DX001 (ip), vehicle: saline",10 of 10 and 4 of 4
same,survivor count,"dose: 10.0 mg/kg/injection, schedule: Q04DX003 (ip), vehicle: saline",5 of 5
same,survivor count,"dose: 10.0 mg/kg/injection, schedule: Q10HX004 (ip), vehicle: saline",5 of 5
same,survivor count,"dose: 10.7 mg/kg/injection, schedule: Q01DX001 (ip), vehicle: saline",9 of 10 and 10 of 10
same,survivor count,"dose: 11.25 mg/kg/injection, schedule: Q01DX001 (ip), vehicle: saline",2 of 4 and 6 of 6
same,survivor count,"dose: 12.0 mg/kg/injection, schedule: Q01DX001 (ip), vehicle: saline",4 of 4
same,survivor count,"dose: 13.3 mg/kg/injection, schedule: Q01DX001 (ip), vehicle: saline",5 of 5
same,survivor count,"dose: 15.0 mg/kg/injection, schedule: Q01DX001 (ip), vehicle: saline",4 of 5 and 6 of 6
same,survivor count,"dose: 16.0 mg/kg/injection, schedule: Q01DX001 (ip), vehicle: clinical formulation",6 of 6
same,survivor count,"dose: 16.0 mg/kg/injection, schedule: Q01DX001 (ip), vehicle: saline","0 of 2, 7 of 10, 8 of 10, 9 of 10, 10 of 10, 4 of 4, 6 of 6"
same,survivor count,"dose: 19.2 mg/kg/injection, schedule: Q01DX001 (ip), vehicle: clinical formulation",6 of 6
same,survivor count,"dose: 19.2 mg/kg/injection, schedule: Q01DX001 (ip), vehicle: saline",6 of 6
same,survivor count,"dose: 20.0 mg/kg/injection, schedule: Q01DX001 (ip), vehicle: saline","2 of 4, 4 of 5, 5 of 5"
same,survivor count,"dose: 24.0 mg/kg/injection, schedule: Q01DX001 (ip), vehicle: saline","3 of 10, 4 of 10, 6 of 10"
same,survivor count,"dose: 26.67 mg/kg/injection, schedule: Q01DX001 (ip), vehicle: saline",2 of 2
same,survivor count,"dose: 26.7 mg/kg/injection, schedule: Q01DX001 (ip), vehicle: saline",0 of 2
same,survivor count,"dose: 30.0 mg/kg/injection, schedule: Q01DX001 (ip), vehicle: saline",3 of 5
same,survivor count,"dose: 32.0 mg/kg/injection, schedule: Q01DX001 (ip), vehicle: saline",6 of 6
same,survivor count,"dose: 64.0 mg/kg/injection, schedule: Q01DX001 (ip), vehicle: saline",4 of 5
same,survivor count,"dose: 128.0 mg/kg/injection, schedule: Q01DX001 (ip), vehicle: saline",2 of 2
CCCCCNC(=O)CCC(NC(=O)c1ccc(N(C)Cc2cnc3nc(N)nc(N)c3n2)cc1)C(=O)O (stereo unspecified),survivor count,"dose: 88.0 mg/kg/injection, schedule: Q01DX009 (ip), vehicle: sodium bicarbonate",6 of 6
same,survivor count,"dose: 134.0 mg/kg/injection, schedule: Q01DX009 (ip), vehicle: sodium bicarbonate",6 of 6
CCOc1ccc(-c2nc(N)nc(N)n2)cc1,survivor count,"dose: 1.0 mg/kg/injection, schedule: Q01DX001 (ip), vehicle: water",2 of 2
same,survivor count,"dose: 10.0 mg/kg/injection, schedule: Q01DX001 (ip), vehicle: water",2 of 2
same,survivor count,"dose: 100.0 mg/kg/injection, schedule: Q01DX001 (ip), vehicle: water",2 of 2
OCC1OC(n2cnc3c2NC=NC[C@H]3O)CC1O (stereo partly specified),survivor count,"dose: 0.1 mg/kg/injection, schedule: Q03HX024 (ip), vehicle: clinical formulation",5 of 5
same,survivor count,"dose: 0.1 mg/kg/injection, schedule: Q03HX024 (ip), vehicle: water",5 of 5
same,survivor count,"dose: 0.2 mg/kg/injection, schedule: Q03HX024 (ip), vehicle: clinical formulation",5 of 5
same,survivor count,"dose: 0.2 mg/kg/injection, schedule: Q03HX024 (ip), vehicle: water",5 of 5
same,survivor count,"dose: 0.25 mg/kg/injection, schedule: Q01DX009 (ip), vehicle: saline",10 of 10
same,survivor count,"dose: 0.5 mg/kg/injection, schedule: Q01DX009 (ip), vehicle: saline",10 of 10
same,survivor count,"dose: 0.63 mg/kg/injection, schedule: Q04DX002 (ip), vehicle: saline",10 of 10
same,survivor count,"dose: 1.0 mg/kg/injection, schedule: Q01DX009 (ip), vehicle: saline",10 of 10
same,survivor count,"dose: 1.25 mg/kg/injection, schedule: Q04DX002 (ip), vehicle: saline",10 of 10
same,survivor count,"dose: 2.0 mg/kg/injection, schedule: Q01DX009 (ip), vehicle: saline",10 of 10
same,survivor count,"dose: 2.5 mg/kg/injection, schedule: Q04DX002 (ip), vehicle: saline",10 of 10
same,survivor count,"dose: 5.0 mg/kg/injection, schedule: Q04DX002 (ip), vehicle: saline",10 of 10
same,survivor count,"dose: 10.0 mg/kg/injection, schedule: Q04DX002 (ip), vehicle: saline",10 of 10
O=NN(CCCl)C(=O)NC1CCCCC1,survivor count,"dose: 4.0 mg/kg/injection, schedule: Q04DX003 (ip), vehicle: saline + alcohol",4 of 4
same,survivor count,"dose: 8.0 mg/kg/injection, schedule: Q04DX003 (ip), vehicle: saline + alcohol",4 of 4
same,survivor count,"dose: 16.0 mg/kg/injection, schedule: Q04DX003 (ip), vehicle: saline + alcohol",4 of 4
same,survivor count,"dose: 24.0 mg/kg/injection, schedule: Q01DX001 (ip), vehicle: distilled water + Tween-80 + alcohol",4 of 4
same,survivor count,"dose: 27.0 mg/kg/injection, schedule: Q01DX001 (ip), vehicle: carboxymethylcellulose (CMC)",10 of 10
same,survivor count,"dose: 32.0 mg/kg/injection, schedule: Q04DX003 (ip), vehicle: saline + alcohol",4 of 4
same,survivor count,"dose: 40.0 mg/kg/injection, schedule: Q01DX001 (ip), vehicle: carboxymethylcellulose (CMC)",10 of 10
same,survivor count,"dose: 40.0 mg/kg/injection, schedule: Q01DX001 (ip), vehicle: distilled water + Tween-80 + alcohol",4 of 4
same,survivor count,"dose: 50.0 mg/kg/injection, schedule: Q01DX001 (ip), vehicle: carboxymethylcellulose (CMC)",10 of 10
same,survivor count,"dose: 50.0 mg/kg/injection, schedule: Q04DX003 (ip), vehicle: Klucel (hydroxypropylcellulose) (HPC)",10 of 10
same,survivor count,"dose: 67.0 mg/kg/injection, schedule: Q01DX001 (ip), vehicle: distilled water + Tween-80 + alcohol",4 of 4
Nc1ccc(-c2c(N)ncc3ccccc23)cc1,survivor count,[4],2 of 2
same,survivor count,[5],2 of 2
same,survivor count,[6],2 of 2
CCOC(=O)CCC(NC(=O)c1ccc(NCCc2cnc3nc(N)[nH]c(=O)c3n2)cc1)C(=O)OCC (stereo unspecified),survivor count,[4],2 of 2
same,survivor count,[5],2 of 2
same,survivor count,[6],2 of 2
CN1CCc2cc(O)cc3c2C1Cc1ccc(O)c(O)c1-3 (stereo unspecified),survivor count,[1],2 of 2
same,survivor count,[2],2 of 2
same,survivor count,[3],2 of 2
